Source: patent publication US20080269510A1, “New alpha-glucosidase inhibitors and antibacterial compounds from Myrtus communis L” (priority 2005, published 2008)
At least one compound was matched to its structure with a doubt left.

Tested on: Pseudomonas aeruginosa
Assay: Antibacterial screening, agar well diffusion
Type: cell-based
Source text: As a negative control, DMSO was used.

## CC(=O)c1c(O)c(C)c(O)c2c1OC1=CC(=O)C(C(C)=O)C(=O)C12C (stereo not shown) [Compound 9, usnic acid]
  activity against Pseudomonas aeruginosa (in words): significant activities
